Reference: US20260109731A1, “NE[…] USE THEREOF” (HUNAN MINGRUI PHARMACEUTICAL CO., LTD., priority 2023, published 2026)
Some entries share one result that the patent states for a list of compounds.

Test: In vitro phase I metabolic stability in male SD rat hepatic microsomes
Type: in vitro ADME
Experimental: Phase I metabolic stability kit (purchased from HUIZHI HEYUAN BIOTECHNOLOGY (BEIJING) CO., LTD), with the following components of the product:
Positive substrate testosterone solution (10 mM): diluted with acetonitrile to prepare a 200 μM solution for later use; stop solution & internal standard (testosterone-D3): dissolved with acetonitrile to prepare a 5 ng/mL solution for later use.
• 1) all components of the kit were thawed in an ice bath and placed on ice for later use; • 2) an incubation system (taking 200 μL system as an example) was prepared:
• 3) 160 μL of pre-incubation solution B was added into the centrifuge tube containing 40 μL of pre-incubation solution A, uniform mixing was performed by pipetting three times, and the resulting mixture was immediately placed in a water bath at 37° C. for incubation and timing was started; • 4) at predetermined incubation time points (0, 5, 10, 15, 30, 45, 60 minutes), the incubation solution was quantitatively taken out, and 200 μL of stop solution (5 ng/mL testosterone-D3 in acetonitrile, pre-chilled at 4° C.) was added to terminate the reaction (stop solution volume: incubation system volume=1:1). […]
The ratio of the chromatographic peak area of the compound to be tested to the chromatographic peak area of the testosterone-D3 (internal standard) was used as the calculated data. […]

Compound	time within which substantially/basically completely metabolized
CC(=O)[C@H]1CC[C@H]2[C@@H]3CC[C@H]4C[C@H](O)CC[C@]4(C)[C@H]3CC[C@]12C [Allopregnanolone, 5α-pregnan-3α-ol-20-one, reference compound]	≤ 10 min
C[C@]12CC[C@H]3[C@@H](CCC4=CC(=O)CC[C@@]43C)[C@@H]1CC[C@@H]2O [Positive control, testosterone]	≤ 10 min
